According to patent publication US20250092085A1 (ASOCIACIÓN CENTRO DE INVESTIGACIÓN COOPERATIVA EN …, priority 2021, published 2025):

Experiment: general procedure: Fmoc solid-phase peptide synthesis; Rink Amide MBHA; DIC / Oxyma Pure
Conditions: whole synthesis, overall

Sequence: GVTSAPDTRPAPGSTA
- isolated yield: 44%

End groups of sequences in plain letters are not given here.
